Measured values: patent publication US20230059747A1, “A COOLING PREPARATION” (SYMRISE AG, priority 2019, published 2023)
At least one structure is not confirmed: it was looked up by name or label, or the drawing left a doubt.

Test system: panel of 5 experienced testers
Assay: Long lasting cooling sensation: panel evaluation of toothpaste compositions
Type: in vivo, human
Details: added alone to standard toothpaste
Protocol: Phenylalkennals and homovanillic acid esters were added alone and in combination to a standard toothpaste composition. A panel of 5 experienced testers evaluated the compositions with regard to initial cooling effect during brushing, directly after brushing and the long last effect after 5 and after 10 minutes. The evaluation was done according to a score card from 1=almost no cooling effect to 10=strong cooling sensation. Example 1 is according to the invention, examples C1 to C3 serve for comparison.

COc1cc(CC(=O)OCCCc2ccccc2)ccc1O [Homovanillic acid propylphenyl ester]
Effect on cooling sensation when added alone (in words): does not have any effect
